Measurements reported in PubChem BioAssay AID504793 (Drosophila RNAi Screening Center, 2011)
The deposit covers about 23,000 reagents; below is a random part of those that have a named target and a result. Over the whole deposit, 62 (0.27%) are marked active. 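Calls come from follow-up tests whose scores are not deposited, so confirmed genes may have low counts here; counts are not normalised per plate.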 The raw values are shown without normalisation. A plus sign joins genes that one reagent is predicted to hit.

Purpose: 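Genes required for cells to halt at G2/M after double-strand DNA breaks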 (primary screen)
Cell system: Drosophila S2R+ cells
Reagent: long dsRNA against Drosophila genes, about 0.25 µg dsRNA per well
Time to read-out: 4 days of dsRNA, then 4 hours of drug before read-out
Conditions: doxorubicin 0.5 µM for 4 hours to cause double-strand breaks, in cells also given a low, harmless dose of dsRNA against nbs to sensitise the assay
Measurement: 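Per-well count of mitotic cells stained for phospho-histone H3 after doxorubicin exposure, used as mitotic index; counts are raw and not normalised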
Direction: mitotic cells: higher = more cells in mitosis, weaker G2 arrest
Active means: 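a call needs confirmation in secondary tests, with other dsRNAs and a check of mitotic timing without damage, not just a high primary count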
Meaning of the calls: active = confirmed in follow-up tests; inactive = not confirmed

| gene knocked down | amplicon | mitotic cells, replicate 1 | Outcome |
| --- | --- | --- | --- |
| CG3634 | DRSC11747 | 6 | inactive |
| CG33218 (retired record) | DRSC22944 | 9 | inactive |
| WASp | DRSC15032 | 6 | inactive |
| WASp | DRSC26170 | 10 | inactive |
| Proc-R | DRSC18410 | 10 | inactive |
| CG11076 | DRSC17197 | 12 | inactive |
| tbc | DRSC20540 | 2 | inactive |
| tbc | DRSC23084 | 15 | inactive |
| tbc | DRSC29058 | 11 | inactive |
| CG3868 | DRSC10380 | 3 | inactive |
| Uba4 | DRSC02194 | 6 | inactive |
| Uba4 | DRSC27964 | 11 | inactive |
| gsb | DRSC04692 | 6 | inactive |
| gsb | DRSC25821 | 8 | inactive |
| Cpr47Eg | DRSC07330 | 3 | inactive |
| gammaCOP | DRSC16955 | 17 | inactive |
| CG3565 | DRSC04389 | 1 | inactive |
| Mitofilin | DRSC16742 | 9 | inactive |
| dome | DRSC19583 | 4 | inactive |
| CG32263 | DRSC22431 | 5 | inactive |
| CG32263 | DRSC29009 | 2 | inactive |
| CG12106 | DRSC17805 | 7 | inactive |
| ODA-Dnal1 | DRSC07270 | 6 | inactive |
| ODA-Dnal1 | DRSC28259 | 7 | inactive |
| CG16964 | DRSC02546 | 6 | inactive |
| CG16964 | DRSC26799 | 6 | inactive |
| ND-30 | DRSC08243 | 5 | inactive |
| Blos4 | DRSC10151 | 5 | inactive |
| Blos4 | DRSC27533 | 4 | inactive |
| tum | DRSC07575 | 14 | inactive |
| CG30076 | DRSC05494 | 5 | inactive |
| CG30076 | DRSC28026 | 11 | inactive |
| CG12521 | DRSC09893 | 8 | inactive |
| CG30281 | DRSC04528 | 4 | inactive |
| CG30281 | DRSC26805 | 6 | inactive |
| CG14628 | DRSC18626 | 16 | inactive |
| alpha-Est3 | DRSC12615 | 4 | inactive |
| Dnaaf6 | DRSC10473 | 6 | inactive |
| AttC | DRSC06886 | 9 | inactive |
| AttC | DRSC26453 | 6 | inactive |
| CG12679 | DRSC20493 | 11 | inactive |
| CG12679 | DRSC29589 | 9 | inactive |
| Sap30 | DRSC19916 | 11 | inactive |
| ced-6 | DRSC07591 | 15 | inactive |
| ced-6 | DRSC29627 | 3 | inactive |
| CG7386 | DRSC10832 | 5 | inactive |
| CG7386 | DRSC29368 | 2 | inactive |
| Tsp42El | DRSC06186 | 4 | inactive |
| mRF1 | DRSC02880 | 10 | inactive |
| mRF1 | DRSC29576 | 3 | inactive |
| Cyp4c3 | DRSC16631 | 9 | inactive |
| Cyp4c3 | DRSC23642 | 6 | inactive |
| CG11381 | DRSC17780 | 5 | inactive |
| CG11381 | DRSC25125 | 12 | inactive |
| CG14629 | DRSC18476 | 18 | inactive |
| CG14629 | DRSC23909 | 3 | inactive |
| His2Av | DRSC16702 | 5 | inactive |
| Pp2A-29B | DRSC03400 | 6 | inactive |
| Pp2A-29B | DRSC28394 | 102 | inactive |
| sxe2 | DRSC15692 | 6 | inactive |
| cta | DRSC03769 | 9 | inactive |
| CG18747 | DRSC15384 | 2 | inactive |
| CG18747 | DRSC26205 | 7 | inactive |
| Use1 | DRSC10180 | 4 | inactive |
| Use1 | DRSC26772 | 3 | inactive |
| PIG-H + Kmn2 | DRSC12653 | 15 | inactive |
| CG18549 | DRSC15347 | 8 | inactive |
| CG18549 | DRSC28847 | 5 | inactive |
| CG12590 | DRSC12216 | 2 | inactive |
| CG7271 + term | DRSC30034 | 12 | inactive |
| FIG4 | DRSC00515 | 7 | inactive |
| CG4880 | DRSC19923 | 5 | inactive |
| CG2182 | DRSC12308 | 12 | inactive |
| CG2182 | DRSC30052 | 6 | inactive |
| Dyro | DRSC10598 | 3 | inactive |
| Dyro | DRSC25276 | 4 | inactive |
| CG8136 | DRSC16385 | 5 | inactive |
| CG8136 | DRSC28135 | 4 | inactive |
| Cp7Fc | DRSC18035 | 2 | inactive |
| Cp7Fc | DRSC27432 | 4 | inactive |
| CG13623 | DRSC14625 | 18 | inactive |
| CG14204 | DRSC19559 | 7 | inactive |
| CG14204 | DRSC29941 | 11 | inactive |
| Rev1 | DRSC08264 | 7 | inactive |

16 entries already listed, sorted by “mitotic cells, replicate 1”, descending:
| gene knocked down | amplicon | mitotic cells, replicate 1 | Outcome |
| --- | --- | --- | --- |
| CG14628 | DRSC18626 | 16 | inactive |
| ced-6 | DRSC07591 | 15 | inactive |
| CG30076 | DRSC28026 | 11 | inactive |
| CG12679 | DRSC20493 | 11 | inactive |
| Sap30 | DRSC19916 | 11 | inactive |
| AttC | DRSC06886 | 9 | inactive |
| CG12679 | DRSC29589 | 9 | inactive |
| CG12521 | DRSC09893 | 8 | inactive |
| CG30281 | DRSC26805 | 6 | inactive |
| Dnaaf6 | DRSC10473 | 6 | inactive |
| AttC | DRSC26453 | 6 | inactive |
| CG7386 | DRSC10832 | 5 | inactive |
| CG30281 | DRSC04528 | 4 | inactive |
| alpha-Est3 | DRSC12615 | 4 | inactive |
| ced-6 | DRSC29627 | 3 | inactive |
| CG7386 | DRSC29368 | 2 | inactive |

Further results follow.
| gene knocked down | amplicon | mitotic cells, replicate 1 | Outcome |
| --- | --- | --- | --- |
| prage | DRSC17957 | 12 | inactive |
| prage | DRSC18490 | 18 | inactive |
| prage | DRSC18497 | 13 | inactive |
| CG7246 | DRSC18422 | 14 | inactive |
| CG46339 | DRSC14136 | 4 | inactive |
| CG46339 | DRSC24047 | 5 | inactive |
| CG13538 | DRSC04180 | 4 | inactive |
| CIA30 | DRSC16266 | 3 | inactive |
| CR18275 | DRSC18151 | 10 | inactive |
| CR18275 | DRSC28716 | 4 | inactive |
| CG6928 | DRSC10749 | 4 | inactive |
| CG2004 | DRSC18200 | 5 | inactive |
| Ogg1 | DRSC17738 | 6 | inactive |
| Tao | DRSC19573 | 9 | inactive |
| Tao | DRSC19574 | 8 | inactive |
| Tao | DRSC22639 | 13 | inactive |
| Tao | DRSC28431 | 1 | inactive |
| IntS1 | DRSC04343 | 8 | inactive |
| IntS1 | DRSC27942 | 8 | inactive |
| 5-HT2A | DRSC11990 | 10 | inactive |
| CG10589 | DRSC11629 | 5 | inactive |
| CG32576 | DRSC19136 | 7 | inactive |
| CG8520 | DRSC07206 | 4 | inactive |
| CG17129 | DRSC08508 | 8 | inactive |
| Ccdc39 | DRSC12286 | 7 | inactive |
| CCKLR-17D1 | DRSC20011 | 7 | inactive |
| CCKLR-17D1 | DRSC20012 | 15 | inactive |
| CCKLR-17D1 | DRSC28081 | 8 | inactive |
| ALiX | DRSC14564 | 6 | inactive |
| ALiX | DRSC27006 | 3 | inactive |
| Ire1 | DRSC15606 | 10 | inactive |
| Cog8 | DRSC02961 | 3 | inactive |
| CG31800 | DRSC22525 | 8 | inactive |
| CG31800 | DRSC29916 | 4 | inactive |
| Vha16-1 | DRSC05020 | 5 | inactive |
| CG31245 | DRSC15498 | 11 | inactive |
| SMC3 | DRSC20227 | 9 | inactive |
| CG32708 | DRSC18411 | 8 | inactive |
| CG32708 | DRSC28419 | 8 | inactive |
| CG7600 | DRSC09681 | 8 | inactive |
| CG7600 | DRSC25328 | 6 | inactive |
| CG13907 | DRSC08377 | 6 | inactive |
| CG13907 | DRSC25983 | 4 | inactive |
| CG17169 | DRSC20905 | 3 | inactive |
| Slu7 | DRSC14729 | 3 | inactive |
| Slu7 | DRSC23582 | 2 | inactive |
| Ctl2 | DRSC14423 | 6 | inactive |
| Ctl2 | DRSC29712 | 13 | inactive |
| CG8838 | DRSC00712 | 4 | inactive |
| CG8838 | DRSC27117 | 4 | inactive |
| Pk34A | DRSC03398 | 5 | inactive |
| Pk34A | DRSC28021 | 11 | inactive |
| CG30034 (retired record) | DRSC05288 | 8 | inactive |
| clumsy | DRSC03111 | 6 | inactive |
| Cpr65Ea | DRSC11027 | 5 | inactive |
| Cpr65Ea | DRSC25692 | 6 | inactive |
